A short description of series [1]: folding stability dG unfold (combined trypsin and chymotrypsin); higher = more stable. A digest of the protocol: (§1)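 Unfolding free energy was derived, per protease or combined, against a sequence-predicted unfolded-state K50 and a shared folded-state K50, starting from K50 inferred by Bayesian fitting of sequencing counts. Digestion with trypsin and chymotrypsin was carried out on designed mini-proteins under 80 residues without cysteine in a PA-tagged cDNA display construct. Only designs with AlphaFold2 dimer inter-PAE above 15 were kept.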

Series [2] is described as follows: folding stability dG unfold from chymotrypsin proteolysis; higher = more stable. A digest of the protocol: as §1
A short description of series [3]: folding stability dG unfold from trypsin proteolysis; higher = more stable. A digest of the protocol:
as §1

± gives the half width of the 95% confidence interval. The two proteases of the assay disagree for many of these sequences.

For “SAGGGVGLLVVVVRLPPSVDPAAAVQAVADEIAEAFPDATVEVVAAAVLPGTGEVVAVFRVVGDTAASAGGS [r8_26_TrMRF]”, the figures for the “folding stability dG unfold” value in series [1], in series [2] and in series [3] were 3.27 ± 0.076 kcal/mol, 3.72 ± 0.087 kcal/mol and 1.58 ± 0.058 kcal/mol, respectively.
The corresponding values for “SAGGSAGGSAGSVTVSSTTTTLTDSMRVITETFTSPDLVKVTFVPTSNPEDVTVTTLPSASAGGSAGGSAGG [r11_1046_JUSTAS]” are 0.643 ± 0.092 kcal/mol, 1.04 ± 0.026 kcal/mol and -0.417 ± 0.093 kcal/mol.
The corresponding values for “SMKIEITPNGITITLSKEEIEKLIEELKKAGYEVKITDIEYDEETDEITVKIEIRPKPPAKEKVVLPEKKSA [r9_448_TrROS_Hall]” are 1.23 ± 0.13 kcal/mol, 1.72 ± 0.095 kcal/mol and -1.26 ± 0.43 kcal/mol.
On the same counts, the results for “SAGGSAGGSMKYKITKVEEVTNEDGSKYLRVEIELTDKDGKKHKFTFVFKTKEDLEKAKIKLPSAGGSAGGS [r20_130_TrROS_Hall]” are 4.66 ± 0.14 kcal/mol, 4.92 ± 0.14 kcal/mol and 1.9 ± 0.11 kcal/mol.
As to “SAGGSAMKIEEIEKVELKKNENGELTAKIIIKDKKTNKYIEIEITVKPGMTLEEIKKLAEELLKKLSAGGSA [r15_181_TrROS_Hall]”, the “folding stability dG unfold” value came out at 2.73 ± 0.14 kcal/mol in series [1], 1.96 ± 0.075 kcal/mol in series [2] and 3.42 ± 0.13 kcal/mol in series [3].
On the same counts, the results for “SAGGGDRRFLRIEFEFETPEEAEEAVRRLVAALGLPPERARVTRLGSRPRRVGDRTLYRVDLLIELPSAGGS [r16_240_TrMRF]” are 3.42 ± 0.048 kcal/mol, 3.897 ± 0.015 kcal/mol and 1.32 ± 0.017 kcal/mol.
For the sequence “SAGGSAGGSEEVKTVTVTRIEELPDGTVRVFVRNEDGSVQEFTFPKEDLKIELPPGAEVRIVPSAGGSAGGS [r12_746_TrROS_Hall]”, the “folding stability dG unfold” value in series [1] came out at 2.7 ± 0.035 kcal/mol; in series [2], 3.145 ± 0.019 kcal/mol; in series [3], 0.948 ± 0.018 kcal/mol.
On the same counts, the results for “SAGGSAGGSMTIEEIKKLAEELGIEKVEIEKVKDGYYKIKIYNKKTGKKIEIIIKVNKDGKIVSAGGSAGGS [r12_170_TrROS_Hall]” are 3.61 ± 0.26 kcal/mol, 3.9 ± 0.091 kcal/mol and 2.27 ± 0.17 kcal/mol.
For the sequence “MKVVFTEEELPDAKVRKVFDPETGTITETVTYPSTSYTVTSTATITSFDPETGKVTITTTVSAPPEAGIPAS [r1_234_JUSTAS]”, the “folding stability dG unfold” value in series [1] stood at 1.63 ± 0.13 kcal/mol; in series [2] it was 1.31 ± 0.057 kcal/mol; in series [3], 1.87 ± 0.05 kcal/mol.
The corresponding values for “SAGGSAGGSADWWIIQITLQPPDGQEFHIMIPYPVDQIKDQVKNKFGFKIKDVTIFPADDLKSAGGSAGGSA [r18_107_TrROS]” are 3.05 ± 0.59 kcal/mol, 3.69 ± 0.32 kcal/mol and 1.52 ± 0.35 kcal/mol.
For “SAGGSAGGSAKIKKIEIEKTKDGKKYKIRIEVDGKEYEIEVESLEEALKLAEELNLEVEIESAGGSAGGSAG [r3_67_TrROS_Hall]”, the “folding stability dG unfold” value in series [1] came to 3.64 ± 0.14 kcal/mol; in series [2] it was 4.12 ± 0.076 kcal/mol; in series [3], 1.99 ± 0.097 kcal/mol.
The corresponding values for “SAGGNMWMVRVKIDDGKTFMITSPEDIEEYLKKKLGPNYKIKEVEWHRMPPPNGPPMPMHEFEIEVPSAGGS [r16_408_TrROS]” are 1.76 ± 0.16 kcal/mol, 2.02 ± 0.1 kcal/mol and 1.28 ± 0.062 kcal/mol.
For the sequence “SAGGSAGGPEVKILKVDPENNTITLALPVDNEILLLEIKIEPDPENPNSFKATIELKVFPYNEASAGGSAGG [r6_371_TrMRF]”, the figures for the “folding stability dG unfold” value in series [1], in series [2] and in series [3] were 2.8 ± 0.26 kcal/mol, 3.21 ± 0.096 kcal/mol and 2.33 ± 0.28 kcal/mol, respectively.
In the case of “SAGGMVRITRDEDGILRVELFVEGTPEEAEEEAARLVRLLEELGFEEVRVEREPFGDGVVVTIEAKASAGGS [r8_113_TrMRF]”, the “folding stability dG unfold” value in series [1] was determined as 2.74 ± 0.076 kcal/mol; in series [2], 2.86 ± 0.083 kcal/mol; in series [3] it was 2.55 ± 0.11 kcal/mol.
With “SAGPPNIEIKIERNPENGFLNVDIEYPDGQTVTYMFFLPDGRILVFTFTIDPGNGKIQDIEPEWIPLPNSAG [r5_587_TrROS]”, the “folding stability dG unfold” value in series [1] was found to be 4.75 ± 0.49 kcal/mol; in series [2], 5.45 ± 0.29 kcal/mol; in series [3], 2.97 ± 0.17 kcal/mol.
On to “SAGGMSVEIQIEKNPETGLVLLTIKIGNETIVIPMTEEEAKEVIEEIKKKKPEPVKSPNGKISPVGESAGGS [r8_332_JUSTAS]”, for which the “folding stability dG unfold” value is 1.97 ± 0.11 kcal/mol in series [1], 2.33 ± 0.098 kcal/mol in series [2] and -0.0384 ± 0.086 kcal/mol in series [3].
On the same counts, the results for “SDIEIEMEPNPENNQWTMKIYLPKDGKPIVTIWMWPNGNVSVEKHKPNGKEKERTIPGPMPIEEALEDALSA [r9_346_TrROS]” are 1.28 ± 0.19 kcal/mol, 2.01 ± 0.1 kcal/mol and -0.276 ± 0.25 kcal/mol.
Consider “SAGGSAGGSAGGSHHPPGSSITVTVTVETVSETTLTFPGGVPVTETTTTTTTVPVTIQTSAGGSAGGSAGGS [r4_418_JUSTAS]”, for which the “folding stability dG unfold” value in series [1] was 1.57 ± 0.12 kcal/mol; in series [2], -0.658 ± 0.15 kcal/mol; in series [3], 2.48 ± 0.16 kcal/mol.

Source of the values: the supplement of paper PMC12764529.
